Results as given in PubChem BioAssay AID540256 (National Center for Advancing Translational Sciences (NCATS), 2011).
Among all 300,000 compounds or so, about 3,700 (1.2%) were called active. Inconclusive results, whose numbers are uncertain, are shown with a selection of clear calls. The call rests on the fitted dose curve; tested in HEK293 cells. A potency beside an inconclusive call is a rough fit, not a confirmed value.

Test: qHTS for Inhibitors of binding or entry into cells for Lassa Virus; further: nearly all actives have a fitted effect of over 50% in size
Conditions: Lassa virus pseudotype entry inhibition, cell reporter; series mostly up to 37.9 µM
Potency means the concentration at half of the fitted maximal effect.

**Q.** Which Potency does the source give for `O=C(Nc1cccc(Br)c1)c1ccc(CSc2ccccc2)cc1` here?
**A.** Its Potency is “inactive”.

**Q.** With `NS(=O)(=O)c1ccc(NC(=O)CN2CCN(c3ccc(F)cc3)CC2)cc1` as the compound, how does the Potency read?
**A.** The Potency was “inactive”.

**Q.** For `Cn1c(=O)c2c(-c3ccccc3Br)n(Cc3ccccc3)cc2n(C)c1=O`, which Potency is on record?
**A.** The Potency was inconclusive: 7.08 µM [inhibitor, partial curve, poor fit].

**Q.** Which Potency does the source give for `COc1ccc(CN(C)C(=O)CNC(=O)c2sc3ccccc3c2Cl)c(OC)c1OC` here?
**A.** Its Potency is inconclusive: 11.2 µM [inhibitor, partial curve, poor fit].

**Q.** Which Potency does the source give for `O=c1oc(-c2ccccc2)nc2sc3c(c12)CCCC3` here?
**A.** The Potency was inconclusive: 29.1 µM [inhibitor, single point].

**Q.** Which Potency does the source give for `COc1ccc(Nc2nnc(-c3ccc(C(=O)NCCO)cc3)c3ccccc23)cc1` here?
**A.** The Potency was inconclusive: 10 µM [inhibitor, partial curve, poor fit].

**Q.** For `CCC(C)N(C(=O)Cn1nnc(-c2ccc(Cl)cc2)n1)C1CCS(=O)(=O)C1` (configuration not stated), which Potency is on record?
**A.** The Potency was inconclusive: 0.891 µM [inhibitor, single point].

**Q.** Which Potency does the source give for `CCOC(=O)COc1ccccc1-c1ccno1` here?
**A.** The Potency was inconclusive: 25.9 µM [activator, single point].

**Q.** For `NC(=O)C1CCN(Cc2nc(-c3cccs3)no2)CC1`, which Potency is on record?
**A.** Its Potency is “inactive”.

**Q.** With `Fc1ccccc1N1CCN(c2ncnc3onc(-c4cccc(Cl)c4)c23)CC1` as the compound, how does the Potency read?
**A.** The Potency was inconclusive: 10 µM [inhibitor, partial curve].

**Q.** Which Potency does the source give for `O=C(c1cccs1)N1C[C@@H](n2cc(C3CC3)nn2)[C@@H](O)C[C@@H]1c1ccc(Cl)cc1` here?
**A.** Its Potency is “inactive”.

**Q.** Which Potency does the source give for `CCOC(=O)CSc1nc2c(sc(=S)n2Cc2ccco2)c(=O)n1-c1ccccc1` here?
**A.** Its Potency is “inactive”.

**Q.** With `CCOC(=O)CCN1C(=O)c2ccccc2Sc2ncccc21` as the compound, how does the Potency read?
**A.** The Potency was inconclusive: 35.5 µM [activator, single point].

**Q.** For `CCOc1ccc2nc(NC(=O)c3ccccn3)sc2c1`, which Potency is on record?
**A.** The Potency was inconclusive: 4.47 µM [inhibitor, full curve, poor fit].

**Q.** With `CCCCN(Cc1ccc(C(=O)N[C@H](C(=O)O)C(C)C)cc1)C(=O)C(c1ccccc1)c1ccccc1` as the compound, how does the Potency read?
**A.** Its Potency is inconclusive: 1.26 µM [inhibitor, single point].

**Q.** For `Nc1nc(Nc2ccccc2F)nc(N2CCCC2)c1[N+](=O)[O-]`, which Potency is on record?
**A.** The Potency was “inactive”.

**Q.** For `O=C(Nc1ccc(N2CCCC2)cc1)c1ccc(Cl)cc1Cl`, which Potency is on record?
**A.** Its Potency is “inactive”.

**Q.** With `CC(=O)NC(c1ccc([N+](=O)[O-])cc1)c1c(O)ccc2ccccc12` (configuration not stated) as the compound, how does the Potency read?
**A.** Its Potency is “inactive”.

**Q.** With `Cc1cccc(NC(=O)Nc2cccnc2)c1C` as the compound, how does the Potency read?
**A.** The Potency was “inactive”.

**Q.** With `Cc1ccc(-c2nc(S(=O)(=O)c3ccc(C)cc3)c(N3CCCCC3)o2)cc1` as the compound, how does the Potency read?
**A.** The Potency was inconclusive: 25.1 µM [inhibitor, partial curve, poor fit].

**Q.** For `COc1cc(S(=O)(=O)n2ccnc2C(C)C)ccc1Br`, which Potency is on record?
**A.** The Potency was inconclusive: 0.891 µM [activator, full curve].

**Q.** With `CCOc1ccc(CCNC(=O)CN2C(=O)COc3ccc(S(=O)(=O)N(CC)CC)cc32)cc1` as the compound, how does the Potency read?
**A.** Its Potency is “inactive”.

**Q.** With `O=C(O)c1ccc(N=Nc2c(O)[nH]c3ccccc23)cc1` as the compound, how does the Potency read?
**A.** The Potency was active: 5.01 µM.

**Q.** Which Potency does the source give for `COc1ccccc1CNC(=O)C(=O)NCC(c1cccnc1)N1CCN(c2ccc(F)cc2)CC1` (configuration not stated) here?
**A.** Its Potency is inconclusive: 17.8 µM [inhibitor, single point].

**Q.** With `COc1cccc(C2=NN(S(C)(=O)=O)C(c3cccs3)C2)c1` (configuration not stated) as the compound, how does the Potency read?
**A.** The Potency was inconclusive: 35.5 µM [activator, partial curve, poor fit].

**Q.** Which Potency does the source give for `CCCN1C(=O)/C(=C/c2c(N3CCNC(=O)C3CC(=O)OCC)nc3c(C)cccn3c2=O)SC1=S` (configuration not stated) here?
**A.** Its Potency is inconclusive: 15.8 µM [inhibitor, single point].

**Q.** Which Potency does the source give for `COc1ccc(N2CCN(CC(O)c3c[nH]c4ccc(OC)cc34)CC2C)cc1` (configuration not stated) here?
**A.** The Potency was inconclusive: 35.5 µM [inhibitor, single point].

**Q.** With `O=C(c1cc(S(=O)(=O)N2CCOCC2)ccc1F)N1CCCc2ccccc21` as the compound, how does the Potency read?
**A.** Its Potency is “inactive”.

**Q.** With `COc1ccc(/C=N/NC(=O)c2ccccc2)cc1OS(=O)(=O)c1ccccc1` as the compound, how does the Potency read?
**A.** The Potency was inconclusive: 35.5 µM [inhibitor, single point].

**Q.** For `O=S(=O)(c1ccccc1)c1nnn2c1nc(NC1CCCCCC1)c1sccc12`, which Potency is on record?
**A.** Its Potency is “inactive”.

**Q.** For `N#Cc1ccc2c(c1)C[C@]1(c3ccsc3)Oc3c(c(=O)oc4ccc(F)cc34)[C@@H]2O1`, which Potency is on record?
**A.** Its Potency is inconclusive: 0.75 µM [activator, single point].

**Q.** Which Potency does the source give for `O=C(NNc1ccc(C2CCCCC2)cc1)C(O)(c1ccccc1)c1cccs1` (configuration not stated) here?
**A.** Its Potency is inconclusive: 23.1 µM [inhibitor, partial curve, poor fit].

**Q.** For `CCOc1cc(/C=C2\CCn3c2nc2cc(Cl)ccc2c3=O)ccc1O`, which Potency is on record?
**A.** The Potency was inconclusive: 35.5 µM [inhibitor, single point].

**Q.** Which Potency does the source give for `CCCC(=O)Nc1ccc(C2C(=O)c3ccccc3C2=O)cc1` here?
**A.** The Potency was “inactive”.

**Q.** Which Potency does the source give for `CCNC(=O)c1ccc(NS(=O)(=O)c2ccc3[nH]c(=O)[nH]c3c2)cc1` here?
**A.** Its Potency is “inactive”.

**Q.** Which Potency does the source give for `O=C(CCl)Nc1ccc(N=Nc2ccccc2)cc1` here?
**A.** The Potency was inconclusive: 29.1 µM [inhibitor, single point].

**Q.** Which Potency does the source give for `CCCCCCCCSc1nnc(/N=C/N(C)C)s1` here?
**A.** Its Potency is “inactive”.

**Q.** With `COc1ccc(NC(=O)CC2C(=O)N(C)C(=S)N2CCc2ccccc2F)cc1` (configuration not stated) as the compound, how does the Potency read?
**A.** The Potency was inconclusive: 35.5 µM [inhibitor, single point].

**Q.** For `CSc1ccc(C2c3[nH]c4ccccc4c3CCN2C(=O)CCC2CCCC2)cc1` (configuration not stated), which Potency is on record?
**A.** The Potency was inconclusive: 3.16 µM [inhibitor, full curve, poor fit].

**Q.** With `COc1ccc(-c2nc3ccccc3o2)cc1NC(=O)c1ccc(OCC(C)C)cc1` as the compound, how does the Potency read?
**A.** Its Potency is inconclusive: 35.5 µM [activator, single point].

**Q.** With `CCOc1[nH]n(-c2ccc(Cl)cc2)c(=O)c1C=Nc1ccc(O)cc1` as the compound, how does the Potency read?
**A.** The Potency was inconclusive: 10 µM [inhibitor, partial curve, poor fit].

**Q.** For `CC(=O)N1CCc2cc(S(=O)(=O)NCCC(=O)NCCc3ccc(C)cc3)ccc21`, which Potency is on record?
**A.** Its Potency is inconclusive: 35.5 µM [inhibitor, partial curve, poor fit].

**Q.** For `COc1ccc(C2/C(=C(\O)c3ccc4c(c3)OCCO4)C(=O)C(=O)N2CCCN(C)C)cc1` (configuration not stated), which Potency is on record?
**A.** Its Potency is “inactive”.

**Q.** For `Cc1ccc2nc(Cl)c(-c3ccccc3)cc2c1`, which Potency is on record?
**A.** The Potency was inconclusive: 11.2 µM [inhibitor, partial curve, poor fit].

**Q.** With `CC(C)c1ccc(/C=C/C(=O)NC2CCCCC2)cc1` as the compound, how does the Potency read?
**A.** The Potency was inconclusive: 22.4 µM [inhibitor, single point].

**Q.** With `CCC(NC(=O)c1oc2ccccc2c1COC)c1ccc(OC)cc1` (configuration not stated) as the compound, how does the Potency read?
**A.** The Potency was inconclusive: 8.91 µM [inhibitor, partial curve, poor fit].

**Q.** For `COc1ccc(C2C(C(C)=O)=C(C)Nc3ncnn32)c(OC)c1OC` (configuration not stated), which Potency is on record?
**A.** Its Potency is inconclusive: 2.51 µM [inhibitor, single point].

**Q.** Which Potency does the source give for `Cc1ccc(SCC(=O)N(C)CC(=O)Nc2cccc(F)c2)cc1` here?
**A.** The Potency was inconclusive: 1.58 µM [inhibitor, partial curve, poor fit].

**Q.** For `COc1cccc(NC(=O)Nc2cnccn2)c1`, which Potency is on record?
**A.** The Potency was “inactive”.

**Q.** Which Potency does the source give for `COc1cccc(-c2cc(C(=O)N3CCN(c4ncccn4)CC3)c3ccccc3n2)c1` here?
**A.** The Potency was inconclusive: 35.5 µM [inhibitor, single point].

**Q.** With `COc1ccccc1NC(=O)COC(=O)CC(C)(C)CC1=NS(=O)(=O)c2ccccc2N1` as the compound, how does the Potency read?
**A.** The Potency was inconclusive: 35.5 µM [inhibitor, single point].

**Q.** With `CCc1nc2cc([N+](=O)[O-])c([N+](=O)[O-])cc2[nH]1` as the compound, how does the Potency read?
**A.** Its Potency is “inactive”.

**Q.** For `COc1ccc(/C=C2\CCC(C3CCCC3)C2=O)cc1` (configuration not stated), which Potency is on record?
**A.** The Potency was inconclusive: 11.2 µM [inhibitor, single point].

**Q.** For `CC(=O)N1CCc2cc(S(=O)(=O)N3c4ccccc4CC3C)ccc21` (configuration not stated), which Potency is on record?
**A.** The Potency was inconclusive: 23.1 µM [inhibitor, partial curve, poor fit].

**Q.** For `COc1ccc(C2C(=O)N(C3CCCCCC3)CC(=O)N2Cc2ccccc2)cc1` (configuration not stated), which Potency is on record?
**A.** The Potency was inconclusive: 35.5 µM [inhibitor, single point].

**Q.** Which Potency does the source give for `CCN(CC(=O)Nc1ccccc1OC)C(=O)COc1ccc2ccccc2c1` here?
**A.** The Potency was inconclusive: 7.94 µM [inhibitor, partial curve].

**Q.** Which Potency does the source give for `COC(=O)CCC(NC(=O)c1cc(C)oc1C)C(=O)OC` (configuration not stated) here?
**A.** Its Potency is “inactive”.

**Q.** For `O=C(Nc1ccccc1)c1ccccc1NS(=O)(=O)c1ccc(Cl)s1`, which Potency is on record?
**A.** The Potency was inconclusive: 35.5 µM [inhibitor, single point].

**Q.** Which Potency does the source give for `CCOC(=O)C1CCN(C(=O)c2ccc3c(SCC(=O)O)c4c(nc3c2)CCCC4)CC1` here?
**A.** Its Potency is inconclusive: 28.2 µM [activator, single point].

**Q.** Which Potency does the source give for `Oc1c(Cl)cc(Cl)cc1/C=N/Nc1ncc(Br)cn1` here?
**A.** Its Potency is inconclusive: 2.59 µM [inhibitor, partial curve].

**Q.** Which Potency does the source give for `CCOc1cc(/C=C/c2cc(C(F)(F)F)[nH]c(=O)n2)ccc1O` here?
**A.** Its Potency is inconclusive: 15.8 µM [inhibitor, single point].

**Q.** Which Potency does the source give for `CCOC(=O)c1ccc(NC(=O)CS(=O)(=O)c2cn(CC)c3ccccc23)cc1` here?
**A.** The Potency was inconclusive: 18.3 µM [inhibitor, single point].

**Q.** With `CCc1ccc(-c2cn3nc(C)c(C)nc3n2)cc1` as the compound, how does the Potency read?
**A.** Its Potency is inconclusive: 2.91 µM [inhibitor, full curve, poor fit].

**Q.** Which Potency does the source give for `O=C(Oc1ccc(-c2nc(-c3ccccn3)no2)cc1)c1ccccc1` here?
**A.** The Potency was inconclusive: 11.2 µM [inhibitor, partial curve, poor fit].

**Q.** For `Fc1ccc(CNC(=S)NC2CCCC2)cc1`, which Potency is on record?
**A.** Its Potency is inconclusive: 28.2 µM [inhibitor, partial curve, poor fit].

**Q.** With `COc1cccc(/C=N/NC(=O)c2ccoc2C)c1` as the compound, how does the Potency read?
**A.** The Potency was inconclusive: 35.5 µM [inhibitor, single point].

**Q.** For `CCOC(=O)c1c(C)[nH]c(C(=O)N2CCN(c3ccc(OC)cc3)CC2)c1C`, which Potency is on record?
**A.** Its Potency is active: 7.94 µM.
